Data reported in article PMC8205012.

By UniProt entry, the sequences of proteins in these tests, tags left out. Where a name states a change or a piece, a line headed by the entry shows the natural chain unless it says otherwise.
UniProt P26951: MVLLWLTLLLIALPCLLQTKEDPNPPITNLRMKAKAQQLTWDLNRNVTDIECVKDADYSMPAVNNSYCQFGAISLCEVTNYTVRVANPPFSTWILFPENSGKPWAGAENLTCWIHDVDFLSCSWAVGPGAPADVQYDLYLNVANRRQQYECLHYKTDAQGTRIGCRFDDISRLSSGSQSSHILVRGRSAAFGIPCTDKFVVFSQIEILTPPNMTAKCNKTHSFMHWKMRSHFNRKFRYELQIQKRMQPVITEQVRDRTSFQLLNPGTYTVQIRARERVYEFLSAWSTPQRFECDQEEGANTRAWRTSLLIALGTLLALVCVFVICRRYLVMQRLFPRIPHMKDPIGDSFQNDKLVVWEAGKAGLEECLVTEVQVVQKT

What was measured:
[1] = target: CD123 (IL-3 receptor alpha) (UniProt P26951); experiment: flow cytometry and confocal microscopy; conditions: Molm-13 cells, 50 nM (flow), 37 C, no binding to CD123-negative RCH-ACV, Cell binding: 1e5 cells, 50 nM (flow) or 5 uM (confocal) FAM-DNA, 30 min, PBS wash, protein on the cell surface, label: FAM (direct binding), single-stranded DNA, letters put together from the description
[2] = target: CD123 (IL-3 receptor alpha) (UniProt P26951); experiment: competition with a labelled probe; conditions: Molm-13 cells, displaces 50 nM FAM-labeled CD123 antibody; Cell binding: 1e5 cells, 50 nM (flow) or 5 uM (confocal) FAM-DNA, 37 C, 30 min, PBS wash; protein on the cell surface; label: FAM (direct binding); single-stranded DNA; letters put together from the description

TGCGTGTGTACTGTGTCTGGTCCCGTAGCTACTAGCGAACTCCCTGCCTCTTAGGGATTTGGGCGG [SS30]
binding result [1]: binds | binding result [2]: binds

Construct, isoform or probe ends are uncertain for at least one entry. At least one result comes from cells or an extract, where the contact may be indirect.
